Measured values reported in patent US5068337A, “1,4-dihydropyridines and their ability to inhibit blood platelet aggregation, inhibit thromboxane synthetase and phospholipase” (John Wyeth & Brother Limited, priority 1984, dated 1991).

Tested on: thromboxane synthetase
Experiment: inhibition of thromboxane production (TxB2 radio-immunoassay, rabbit platelet rich plasma)
Type: cell-based
Conditions: Oryctolagus cuniculus, rabbit PRP, adenosine diphosphate and adrenalin, read-out: IC50 (50% inhibition of TxB2)
Description: The compounds of formula I were tested for their ability to inhibit thromboxane production by the following standard test:
a) Generation of thromboxanes
Blood (approx. 75 ml) is obtained from an anaesthetised rabbit and centrifuged at 200 g for 10 minutes to obtain platelet rich plasma (PRP). An aliquot of PRP is incubated for 10 minutes at 37° C. in the presence of vehicle or drug. Platelet aggregation is induced by the addition of adenosine diphosphate and adrenalin. The tubes are incubated for 3 minutes, centrifuged at 10,000 for 3 minutes and a […] aliquot of the supernatant taken for radio-immunoassay of thromboxane B2 (TxB2).
b) Radio-immunoassay of TxB2
The total incubation volume is 150μ containing 50μl of ^3 H - TxB2 (0.005 μCi), […] of sample or authentic TxB2 ranging from 5 to 300 pg per tube as standards and 50 μl of rabbit anti-sera to TxB2 (in a concentration which will bind 50% of H-TxB2) After incubation for 1 hour at room temperature the tubes are further incubated for 16-20 hours at 4° C. 1 ml of dextran-coated charcoal is then added to the tubes which are further incubated on ice for 10 minutes. […] Measurement of the radioactivity in the supernatant quantifies the amount of [^3 H]-TxB2 bound by the antibody. The concentration of unlabelled TxB2 in the sample is then determined from a linear standard curve. […]

IC50: > 1000 µM
SMILES: COC(=O)C1=C(C)NC(C)=C(C(=O)OC)C1c1ccccc1[N+](=O)[O-] [nifedipine, reference compound]
